Record: PubChem BioAssay AID1224830 (NIAID, 2016)

Test: 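Regulators of TLR4 signalling towards TNF-alpha in macrophage-like cells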 (primary screen)
System: human THP-1 monocytic leukaemia cells, TNF dual-luciferase reporter clone, PMA-differentiated to macrophage-like cells
Reagents: siRNA pool against human genes, 50 nM
Timing: LPS for 4 h, given about 3 days after siRNA transfection
Treatment: bacterial LPS (TLR4 ligand), 10 ng/ml
Detection: 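Ratio of firefly to renilla light, scaled to the plate median and expressed as a robust z-score per replicate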
Reading the numbers: TNF reporter robust z-score: higher = stronger TNF reporter response to LPS
Call rule: 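a well is active when its z-score exceeds 2.8 or falls below -1.5; control wells carry no call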
The whole screen tested about 18,000 reagents; this is a part drawn at random. About 2,900 of all reagents (16%) were called active. 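Calls are made per well; low scores hint the gene aids the LPS response, high scores that it dampens it.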 Entries without a mark were called inactive. Repeated entries: four replicate wells of each siRNA pool.

| gene | PubChem SID | TNF reporter robust z-score |
| --- | --- | --- |
| COA7 | SID315459102 | 1.73 |
| COA7 | SID315459102 | 1.41 |
| COA7 | SID315459102 | -0.12 |
| COA7 | SID315459102 | 1.15 |
| PRKACB | SID315450793 | -0.6 |
| PRKACB | SID315450793 | 1.31 |
| PRKACB | SID315450793 | 0.39 |
| DELE1 | SID315453585 | -0.85 |
| DELE1 | SID315453585 | -1 |
| DELE1 | SID315453585 | -0.01 |
| DELE1 | SID315453585 | -0.73 |
| OLFML1 | SID315463657 | 2.18 |
| OLFML1 | SID315463657 | 1.52 |
| OLFML1 | SID315463657 | 2.34 |
| OLFML1 | SID315463657 | 2.21 |
| UPK3B | SID315459801 | -0.22 |
| UPK3B | SID315459801 | 0.18 |
| UPK3B | SID315459801 | 0.38 |
| POTEB3 | SID315464010 | -1.08 |
| POTEB3 | SID315464010 | -0.22 |
| POTEB3 | SID315464010 | 0.09 |
| POTEB3 | SID315464010 | -0.43 |
| SLC25A12 | SID315452680 | -0.57 |
| SLC25A12 | SID315452680 | -0.53 |
| SLC25A12 | SID315452680 | -1.04 |
| SLC25A12 | SID315452680 | -0.48 |
| USP11 | SID315452441 | -0.25 |
| USP11 | SID315452441 | -0.43 |
| USP11 | SID315452441 | 1.69 |
| USP11 | SID315452441 | 0.27 |
| CCDC28A | SID315455540 | 0.01 |
| CCDC28A | SID315455540 | 0.93 |
| CCDC28A | SID315455540 | 1.51 |
| CCDC28A | SID315455540 | 1.58 |
| PAIP1 | SID315454227 | -0.24 |
| PAIP1 | SID315454227 | -0.11 |
| PAIP1 | SID315454227 | -0.55 |
| PAIP1 | SID315454227 | -0.45 |
| RPS25 | SID315451243 | 0.4 |
| RPS25 | SID315451243 | 0.18 |
| RPS25 | SID315451243 | 0.12 |
| RPS25 | SID315451243 | 0.01 |
| SCML2 | SID315454048 | -0.79 |
| SCML2 | SID315454048 | -0.88 |
| SCML2 | SID315454048 | -0.71 |
| SCML2 | SID315454048 | -0.49 |
| CROT | SID315457119 | -0.44 |
| CROT | SID315457119 | 0.63 |
| CROT | SID315457119 | 0.77 |
| CROT | SID315457119 | 0.81 |
| SPON2 | SID315454069 | -0.82 |
| SPON2 | SID315454069 | -0.89 |
| SPON2 | SID315454069 | -1.06 |
| SPON2 | SID315454069 | -0.69 |
| EXOC3L1 | SID315463709 | 1.26 |
| EXOC3L1 | SID315463709 | 1.72 |
| EXOC3L1 | SID315463709 | 1.96 |
| EXOC3L1 | SID315463709 | 2.46 |
| SYT14P1 | SID315464770 | 0.74 |
| SYT14P1 | SID315464770 | 0.52 |
| SYT14P1 | SID315464770 | -0.48 |
| SYT14P1 | SID315464770 | -0.62 |
| FBXL3 | SID315455718 | 0.51 |
| FBXL3 | SID315455718 | -0.2 |
| FBXL3 | SID315455718 | 0.17 |
| FBXL3 | SID315455718 | -0.93 |
| SCGB1D1 | SID315454266 | -0.15 |
| SCGB1D1 | SID315454266 | -0.65 |
| SCGB1D1 | SID315454266 | -0.74 |
| SCGB1D1 | SID315454266 | -0.34 |
| AHCY | SID315447250 | -0.43 |
| AHCY | SID315447250 | -0.04 |
| AHCY | SID315447250 | -0.6 |
| AHCY | SID315447250 | -0.15 |
| LONP2 | SID315460082 | -0.27 |
| LONP2 | SID315460082 | 0.32 |
| LONP2 | SID315460082 | -0.68 |
| LONP2 | SID315460082 | 1.24 |
| CCT8L1P | SID315462610 | 1.55 |
| CCT8L1P | SID315462610 | 1.68 |
| CCT8L1P | SID315462610 | -0.23 |
| CCT8L1P | SID315462610 | -0.46 |
| GRIN2D | SID315449051 | -1.55 (active) |
| GRIN2D | SID315449051 | -0.46 |
| GRIN2D | SID315449051 | -0.34 |
| GRIN2D | SID315449051 | -0.53 |
| GJB7 | SID315464372 | 0.06 |
| GJB7 | SID315464372 | 1.18 |
| GJB7 | SID315464372 | 0.54 |
| GJB7 | SID315464372 | 0.13 |
| FGD1 | SID315448671 | 0.8 |
| FGD1 | SID315448671 | -0.65 |
| FGD1 | SID315448671 | -0.17 |
| FGD1 | SID315448671 | 0.35 |
| SOWAHB | SID315464185 | -1.84 (active) |
| SOWAHB | SID315464185 | -2.08 (active) |
| SOWAHB | SID315464185 | -1.89 (active) |
| SOWAHB | SID315464185 | -1.82 (active) |
| UQCRH | SID315452086 | -0.44 |
| UQCRH | SID315452086 | 1.52 |
| UQCRH | SID315452086 | -0.11 |
| UQCRH | SID315452086 | -0.05 |
| RPS5 | SID315451218 | 3.5 (active) |
| RPS5 | SID315451218 | 1.11 |
| RPS5 | SID315451218 | 1.01 |
| RPS5 | SID315451218 | 0.85 |
| OR2AT4 | SID315464111 | -1.08 |
| OR2AT4 | SID315464111 | -0.88 |
| OR2AT4 | SID315464111 | -1.32 |
| OR2AT4 | SID315464111 | -0.55 |

7 entries from above, sorted by “TNF reporter robust z-score”, lowest first.
| gene | PubChem SID | TNF reporter robust z-score |
| --- | --- | --- |
| SPON2 | SID315454069 | -1.06 |
| SPON2 | SID315454069 | -0.89 |
| SPON2 | SID315454069 | -0.69 |
| EXOC3L1 | SID315463709 | 1.26 |
| EXOC3L1 | SID315463709 | 1.72 |
| EXOC3L1 | SID315463709 | 1.96 |
| EXOC3L1 | SID315463709 | 2.46 |
